# Experimental data published in the supplement of paper PMC8728848.
# The other results are listed elsewhere or left out.
# B1: Protein L(A-C2) (Finegoldia magna), Q51912 (protein)
# chain: ADEPIDLEKLEEKRDKENVGNLPKFDNEVKDGSENPMAKYPDFDDEASTRFETENNEFEEKKVVSDNFFDQSEHPFVENKEETPETPETDSEEEVTIKANLIFANGSTQTAEFKGTFEKATSEAYAYADTLKKDNGEYTVDVADKGYTLNIKFAGKEKTPEEPKEEVTIKANLIYADGKTQTAEFKGTFEEATAEAYRYADALKKDNGEYTVDVADKGYTLNIKFAGKEKTPEEPKEEVTIKANLIYADGKTQTAEFKGTFEEATAEAYRYADLLAKENGKYTVDVADKGYTLNIKFAGKEKTPEEPKEEVTIKANLIYADGKTQTAEFKGTFAEATAEAYRYADLLAKENGKYTADLEDGGYTINIRFAGKKVDEKPEEKEQVTIKENIYFEDGTVQTATFKGTFAEATAEAYRYADLLSKEHGKYTADLEDGGYTINIRFAGKEEPEETPEKPEVQDGYASYEEAEAAAKEALKNDDVNKSYTIRQGADGRYYYVLSPVEAEEEKPEAQNGYATYEEAEAAAKKALENDPINKSYSIRQGADGRYYYVLSPVEAE
# Experiments:
# Assay in all cases: glycan array binding signal (z-score within array); higher = stronger binding
# Conditions in all cases: glycan notation: IUPAC condensed, linker removed
# [1] = molecular target: Fuc(a1-3)GlcNAc
# In short: (§1)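 Negative Z-scores can be read as non-binding. The Z-score is calculated within each array and then averaged across arrays of one protein sequence at different concentrations or buffers and across linkers. Arrays, 3228 in all, were curated from the Consortium for Functional Glycomics database and kept only where the protein sequence was available.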
# [2] = molecular target: Fuc(a1-3)[Gal(b1-4)]Glc6S
# In short: as §1
# [3] = molecular target: Fuc(a1-3)[Gal(b1-4)]GlcNAc
# In short: as §1
# [4] = molecular target: Fuc(a1-3)[Gal(b1-4)]GlcNAc(b1-2)Man
# In short: as §1
# [5] = molecular target: Fuc(a1-3)[Gal(b1-4)]GlcNAc(b1-2)Man(a1-3)[Fuc(a1-3)[Gal(b1-4)]GlcNAc(b1-2)Man(a1-6)]Man(b1-4)GlcNAc(b1-4)GlcNAc
# In short: as §1
# [6] = molecular target: Fuc(a1-3)[Gal(b1-4)]GlcNAc(b1-2)Man(a1-3)[Fuc(a1-3)[Gal(b1-4)]GlcNAc(b1-2)Man(a1-6)]Man(b1-4)GlcNAc(b1-4)[Fuc(a1-6)]GlcNAc
# In short: as §1
# [7] = molecular target: Fuc(a1-3)[Gal(b1-4)]GlcNAc(b1-3)Gal(b1-3)[Fuc(a1-4)]GlcNAc
# In short: as §1
# [8] = molecular target: Fuc(a1-3)[Gal(b1-4)]GlcNAc(b1-3)GalNAc
# In short: as §1
# [9] = molecular target: Fuc(a1-3)[Gal(b1-4)]GlcNAc(b1-4)Gal(b1-4)[Fuc(a1-3)]GlcNAc
# In short: as §1
# [10] = molecular target: Fuc(a1-3)[Gal(b1-4)]GlcNAc(b1-4)Gal(b1-4)[Fuc(a1-3)]GlcNAc(b1-4)Gal(b1-4)[Fuc(a1-3)]GlcNAc
# In short: as §1
# [11] = molecular target: Fuc(a1-3)[Gal(b1-4)]GlcNAc(b1-6)GalNAc
# In short: as §1
# [12] = molecular target: Fuc(a1-3)[Gal(b1-4)]GlcNAc(b1-6)[Gal(b1-3)GlcNAc(b1-3)]Gal(b1-4)Glc
# In short: as §1
# [13] = molecular target: Fuc(a1-3)[Gal(b1-4)]GlcNAc6S
# In short: as §1
# [14] = molecular target: Fuc(a1-3)[Gal3S(b1-4)]Glc
# In short: as §1
# [15] = molecular target: Fuc(a1-3)[Gal3S(b1-4)]GlcNAc
# In short: as §1
# [16] = molecular target: Fuc(a1-3)[Gal3S(b1-4)]GlcNAc6S
# In short: as §1
# [17] = molecular target: Fuc(a1-3)[GalNAc(b1-4)]GlcNAc
# In short: as §1
# [18] = molecular target: Fuc(a1-3)[GalNAc(b1-4)]GlcNAc6S
# In short: as §1
# [19] = molecular target: Fuc(a1-4)GlcNAc
# In short: as §1
# [20] = molecular target: Fuc(b1-3)GlcNAc
# In short: as §1
# [21] = molecular target: Gal(a1-2)Gal
# In short: as §1
# [22] = molecular target: Gal(a1-3)Gal
# In short: as §1
# [23] = molecular target: Gal(a1-3)Gal(b1-3)GlcNAc
# In short: as §1
# [24] = molecular target: Gal(a1-3)Gal(b1-3)GlcNAc(b1-2)Man
# In short: as §1
# [25] = molecular target: Gal(a1-3)Gal(b1-3)GlcNAc(b1-2)Man(a1-3)[Gal(a1-3)Gal(b1-3)GlcNAc(b1-2)Man(a1-6)]Man(b1-4)GlcNAc(b1-4)GlcNAc
# In short: as §1
# [26] = molecular target: Gal(a1-3)Gal(b1-3)GlcNAc(b1-3)GalNAc
# In short: as §1
# [27] = molecular target: Gal(a1-3)Gal(b1-3)GlcNAc(b1-6)GalNAc
# In short: as §1
# [28] = molecular target: Gal(a1-3)Gal(b1-3)[Fuc(a1-4)]GlcNAc(b1-2)Man(a1-3)[Gal(a1-3)Gal(b1-3)[Fuc(a1-4)]GlcNAc(b1-2)Man(a1-6)]Man(b1-4)GlcNAc(b1-4)GlcNAc
# In short: as §1
# [29] = molecular target: Gal(a1-3)Gal(b1-4)Glc
# In short: as §1
# [30] = molecular target: Gal(a1-3)Gal(b1-4)GlcNAc
# In short: as §1
binder,measurement,setting,value
B1,glycan array binding signal (z-score),[1],0.029
same,glycan array binding signal (z-score),[2],0.92
same,glycan array binding signal (z-score),[3],-0.159
same,glycan array binding signal (z-score),[4],-0.543
same,glycan array binding signal (z-score),[5],-0.196
same,glycan array binding signal (z-score),[6],1.71
same,glycan array binding signal (z-score),[7],0.052
same,glycan array binding signal (z-score),[8],0.283
same,glycan array binding signal (z-score),[9],1.42
same,glycan array binding signal (z-score),[10],-0.73
same,glycan array binding signal (z-score),[11],1.44
same,glycan array binding signal (z-score),[12],-0.153
same,glycan array binding signal (z-score),[13],0.647
same,glycan array binding signal (z-score),[14],-0.382
same,glycan array binding signal (z-score),[15],-0.101
same,glycan array binding signal (z-score),[16],-0.228
same,glycan array binding signal (z-score),[17],1.8
same,glycan array binding signal (z-score),[18],-0.672
same,glycan array binding signal (z-score),[19],-0.933
same,glycan array binding signal (z-score),[20],-0.986
same,glycan array binding signal (z-score),[21],-0.485
same,glycan array binding signal (z-score),[22],-0.552
same,glycan array binding signal (z-score),[23],-0.339
same,glycan array binding signal (z-score),[24],-0.57
same,glycan array binding signal (z-score),[25],1.98
same,glycan array binding signal (z-score),[26],-0.991
same,glycan array binding signal (z-score),[27],0.196
same,glycan array binding signal (z-score),[28],0.781
same,glycan array binding signal (z-score),[29],-0.965
same,glycan array binding signal (z-score),[30],-0.604

# Given bar-delimited: entries from further up.
binder | measurement | setting | value
B1 | glycan array binding signal (z-score) | [10] | -0.73
same | glycan array binding signal (z-score) | [11] | 1.44
